Test results from patent US20040018580A1, “Synthetic substrates for prostasin” (priority 2002, published 2004).
No constants are given. Whether binding was seen depends on the method and setting. Binding can be weak; no strength is given.

Legend:
thrombin [1] = experiment: complex formation in the presence of heparin, western blot
thrombin [2] = experiment: complex formation at different pH, western blot

binding (thrombin [1]): binds
binding (thrombin [2]): binds
B1: mouse prostasin-binding protein (mPBP) (protein, UniProt Q07235 20-397, looked up)
chain: SQFNSLSLEELGSNTGIQVFNQIIKSRPHENVVVSPHGIASILGMLQLGADGKTKKQLSTVMRYNVNGVGKVLKKINKAIVSKKNKDIVTVANAVFLRNGFKMEVPFAVRNKDVFQCEVQNVNFQDPASASESINFWVKNETRGMIDNLLSPNLIDGALTRLVLVNAVYFKGLWKSRFQPESTKKRTFVAGDGKSYQVPMLAQLSVFRSGSTRTPNGLWYNFIELPYHGESISMLIALPTESSTPLSAIIPHITTKTIDSWMNTMVPKRMQLVLPKFTAVAQTDLKEPLKALGITEMFEPSKANFTKITRSESLHVSHILQKAKIEVSEDGTKASAATTAILIARSSPPWFIVDRPFLFSIRHNPTGAILFLGQVNKP
